Measured values reported in PubChem BioAssay (NCATS).
The inconclusive results got no clear call from the source; some entries with a clear call stand among them for comparison. For some of these results: Where the call is inconclusive, the potency comes from a doubtful curve fit. Active and inactive are the calls of the source. Unless noted, calls come from the whole dose curve; as a rule, active = well fitted curve in the direction sought with a large enough effect; inconclusive = small, poorly fitted or top-dose-only effect, or another doubt; inactive = no such curve, though single readings can be large; an effect the other way counts as inactive or inconclusive.

Tests used:
[1] = Quantitative High-Throughput drug screen in 47 multiple myeloma cell lines against the NCATS MIPE library collection: KHM11_PLB cell viability assay (AID 1918962); conditions: KHM11 myeloma cell viability, CellTiter-Glo ATP luminescence, 48 h; viability, % of DMSO control: at 45.8 µM (top of the series); note: potency is the fitted concentration of half-maximal effect; nearly all actives have a fitted effect of over 35% in size
Summary of the method: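 qHTS of the MIPE 4.0 collection: 500 myeloma cells/well, 48 h drug exposure at 37C in 5% CO2, then CellTiter-Glo for 5 min at room temperature before luminescence reading.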

[2] = Quantitative High-Throughput drug screen in 47 multiple myeloma cell lines against the NCATS MIPE library collection: JIM1_ECACC cell viability assay (AID 1918964; note: potency is the fitted concentration of half-maximal effect)
Summary of the method: (§1)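 Steps: seed 500 cells per well; pin-transfer MIPE 4.0 library; incubate 48 h at 37C, 5% CO2, humidified; add CellTiter-Glo, 5 min room temperature; read luminescence.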

[3] = Quantitative High-Throughput drug screen in 47 multiple myeloma cell lines against the NCATS MIPE library collection: Karpas25_ECACC cell viability assay (AID 1918968; note: nearly all actives have a fitted effect of over 35% in size); conditions: Karpas25 myeloma viability, CellTiter-Glo ATP, 48 h; viability (% of control): at 45.8 µM (top of the series)
Summary of the method: as §1

[4] = Quantitative High-Throughput drug screen in 47 multiple myeloma cell lines against the NCATS MIPE library collection: KMS12BM_JCRB cell viability assay (AID 1918971); note: potency is the fitted concentration of half-maximal effect; nearly all actives have a fitted effect of over 35% in size
Summary of the method: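 We plated 500 myeloma cells per well, pinned in MIPE 4.0 compounds, and incubated for 48 hours at 37C. ATP was then quantified with CellTiter-Glo, with DMSO and media-only wells defining 100% and 0%.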

[5] = Quantitative High-Throughput drug screen in 47 multiple myeloma cell lines against the NCATS MIPE library collection: KMS12PE_JCRB cell viability assay (AID 1918972); note: potency is the fitted concentration of half-maximal effect; nearly all actives have a fitted effect of over 30% in size
Summary of the method: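 Luminescent ATP measurement with CellTiter-Glo gives viability, scaled between DMSO-only wells (100%) and media-only wells (0%). Cells, 500 per well, faced library compounds for 48 hours at 37C.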

[6] = Quantitative High-Throughput drug screen in 47 multiple myeloma cell lines against the NCATS MIPE library collection: KMS20_JCRB cell viability assay (AID 1918973); conditions: CellTiter-Glo ATP, 48 h; viability (% of DMSO): at 45.8 µM (top of the series); note: potency is the fitted concentration of half-maximal effect; nearly all actives have a fitted effect of over 45% in size
Summary of the method: as §1

[7] = Quantitative High-Throughput drug screen in 47 multiple myeloma cell lines against the NCATS MIPE library collection: KMS21BM_JCRB cell viability assay (AID 1918974); conditions: ATP luminescence, 48 h; viability: at 45.8 µM (top of the series); note: potency is the fitted concentration of half-maximal effect
Summary of the method: as §1

[8] = Quantitative High-Throughput drug screen in 47 multiple myeloma cell lines against the NCATS MIPE library collection: MOLP8_DSMZ cell viability assay (AID 1918977); note: potency is the fitted concentration of half-maximal effect; nearly all actives have a fitted effect of over 45% in size
Summary of the method: (§2)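 qHTS format: cells plated (500/well), pin-dosed with MIPE 4.0 compounds, kept 48 h at 37 °C. Readout was CellTiter-Glo luminescence, median RLU.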

[9] = Quantitative High-Throughput drug screen in 47 multiple myeloma cell lines against the NCATS MIPE library collection: NCIH929_DSMZ cell viability assay (AID 1918978); conditions: NCI-H929 myeloma viability, CellTiter-Glo ATP, 48 h; viability, % of control: at 45.8 µM (top of the series); note: potency is the fitted concentration of half-maximal effect; nearly all actives have a fitted effect of over 35% in size
Summary of the method: as §2

[10] = Quantitative High-Throughput drug screen in 47 multiple myeloma cell lines against the NCATS MIPE library collection: MM1R_ATCC cell viability assay (AID 1918981)
Summary of the method: as §2

[11] = Quantitative High-Throughput drug screen in 47 multiple myeloma cell lines against the NCATS MIPE library collection: KMS34_JCRB cell viability assay (AID 1918985); note: potency is the fitted concentration of half-maximal effect; nearly all actives have a fitted effect of over 40% in size
Summary of the method: as §2

[12] = Quantitative High-Throughput drug screen in 47 multiple myeloma cell lines against the NCATS MIPE library collection: SKMM1_PLB cell viability assay (AID 1919863); conditions: SKMM1 myeloma viability, CellTiter-Glo ATP, 48 h; viability: stronger effect = lower value; note: nearly all actives have a fitted effect of over 35% in size
Summary of the method: as §2

[13] = Quantitative High-Throughput drug screen in 47 multiple myeloma cell lines against the NCATS MIPE library collection: VP6_DJ cell viability assay (AID 1919867); note: nearly all actives have a fitted effect of over 40% in size
Summary of the method: as §2

[14] = Quantitative High-Throughput drug screen in 47 multiple myeloma cell lines against the NCATS MIPE library collection: UTMC2_PLB cell viability assay (AID 1919868); conditions: CellTiter-Glo ATP luminescence, 48 h; viability (% of DMSO control): at 45.8 µM (top of the series); note: potency is the fitted concentration of half-maximal effect; nearly all actives have a fitted effect of over 55% in size
Summary of the method: as §2

[15] = Quantitative High-Throughput drug screen in 47 multiple myeloma cell lines against the NCATS MIPE library collection: PCM6_Riken cell viability assay (AID 1919870); note: potency is the fitted concentration of half-maximal effect; nearly all actives have a fitted effect of over 30% in size
Summary of the method: as §2

[16] = Quantitative High-Throughput drug screen in 47 multiple myeloma cell lines against the NCATS MIPE library collection: RPMI8226_ATCC cell viability assay (AID 1919871); note: nearly all actives have a fitted effect of over 30% in size
Summary of the method: as §2

[17] = Quantitative High-Throughput drug screen in 47 multiple myeloma cell lines against the NCATS MIPE library collection: OPM2_DSMZ cell viability assay (AID 1919872); note: potency is the fitted concentration of half-maximal effect; nearly all actives have a fitted effect of over 30% in size
Summary of the method: as §1

[18] = Quantitative High-Throughput drug screen in 47 multiple myeloma cell lines against the NCATS MIPE library collection: KMS28BM_JCRB cell viability assay (AID 1919874); note: nearly all actives have a fitted effect of over 35% in size
Summary of the method: as §2

[19] = qHTS for identification of novel therapeutic agents for treatment of microphthalmiaassociated transcription factor (MiT) renal cell carcinoma (RCC) (AID 1963991; calls by dose curve; note: potency is the fitted concentration of half-maximal effect); conditions: TFE3-RCC UOK109 viability, CellTiter-Glo, 48 h; active = Z-AUC below -0.8 in all three lines
Summary of the method: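 Curves over 11 concentrations were fitted to CellTiter-Glo luminescence, scaled between empty wells (0%) and DMSO (100%) viability. Cells were UOK109, UOK124 and UOK145 TFE3-fusion RCC lines at 500/well, exposed 48 hours at 37 C.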

HaCat = experiment: Cytotoxic Profiling of Annotated Libraries Using Quantitative High-Throughput Screening (AID 1296008); conditions: Five cell lines viability, CellTiter-Glo ATP luminescence, 48-72 h; max response: stronger effect = lower value; note: potency is the fitted concentration of half-maximal effect; nearly all actives have a fitted effect of over 60% in size
Summary of the method: (§3)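 Compounds were pin-transferred onto cells and incubated 48 or 72 hr at 37 degree Celsius, 95% humidity. CellTiter-Glo was added, plates sat 10 min at room temperature, then ATP-coupled luminescence was imaged as the viability read-out.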

KB-3-1 = experiment: as above; conditions: Five cell lines viability, CellTiter-Glo ATP luminescence, 48-72 h; max response: stronger effect = lower value
Summary of the method: as §3

NIH3T3 = experiment: as above; conditions: Five cell lines viability, CellTiter-Glo ATP luminescence, 48-72 h; max response: stronger effect = lower value
Summary of the method: as §3

C33A = experiment: Primary qHTS to identify gynecologic anti-cancer compounds using libraries of approved drugs and bioactive compounds (AID 1345084); conditions: Gynecologic cancer cell panel viability, ATPlite luminescence, 48 h; series mostly up to 57.5 µM; note: nearly all actives have a fitted effect of over 55% in size; note: potency is the fitted concentration of half-maximal effect; for activity change, negative = cytotoxicity: % is set by controls: 0 for no effect and ±100 for the full control effect
Summary of the method: (§4)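 Measured: luminescence after ATPlite addition (15 min, RT). Exposure: 48 h, 37 C, 5% CO2.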

Es-2 = experiment: as above; conditions: Gynecologic cancer cell panel viability, ATPlite luminescence, 48 h; series mostly up to 57.5 µM
Summary of the method: as §4

HeLa = experiment: as above; conditions: Gynecologic cancer cell panel viability, ATPlite luminescence, 48 h; activity change, negative = cytotoxicity: at 57.5 µM (top of the series)
Summary of the method: as §4

JEG-3 = experiment: as above; conditions: Gynecologic cancer cell panel viability, ATPlite luminescence, 48 h; series mostly up to 57.5 µM
Summary of the method: as §4

OV90 = experiment: as above; conditions: Gynecologic cancer cell panel viability, ATPlite luminescence, 48 h; series mostly up to 57.5 µM
Summary of the method: as §4

PA-1 = experiment: as above; conditions: Gynecologic cancer cell panel viability, ATPlite luminescence, 48 h; series mostly up to 57.5 µM
Summary of the method: as §4

Tov-21-G = experiment: as above; conditions: Gynecologic cancer cell panel viability, ATPlite luminescence, 48 h; activity change, negative = cytotoxicity: at 57.5 µM (top of the series) unless noted
Summary of the method: as §4

Tov112D = experiment: as above; conditions: Gynecologic cancer cell panel viability, ATPlite luminescence, 48 h; series mostly up to 57.5 µM
Summary of the method: as §4

MCC-13 = experiment: qHTS assay to identify novel small-molecules to repurpose for Merkel cell carcinoma treatment (AID 1296009); conditions: MCC and control cell lines, CellTiter-Glo viability, 72 h; series mostly up to 46 µM; note: potency is the fitted concentration of half-maximal effect; nearly all actives have a fitted effect of over 60% in size
Summary of the method: (§5)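 Viability readout: ATP luminescence (CellTiter-Glo) after 72 hr drug exposure at 37 degree celsius. Dose-response format was 8 points for NPC and 11 points for MIPE; data normalized to in-plate controls.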

MKL-1 = experiment: as above; conditions: MCC and control cell lines, CellTiter-Glo viability, 72 h; activity change, negative = cytotoxicity: at 46 µM (top of the series)
Summary of the method: as §5

UISO = experiment: as above; conditions: MCC and control cell lines, CellTiter-Glo viability, 72 h; activity change, negative = cytotoxicity: at 46 µM (top of the series)
Summary of the method: as §5

WaGa = experiment: as above; conditions: MCC and control cell lines, CellTiter-Glo viability, 72 h; series mostly up to 46 µM
Summary of the method: as §5

Cc1nc2ccc(CN(C)c3ccc(C(=O)N[C@@H](CCC(=O)O)C(=O)O)s3)cc2c(=O)[nH]1
inactive: Potency [3] | Potency [13] | Potency [16] | Potency [18] | Potency (C33A)
inconclusive: Potency [1] 935 nM [cytotoxic, partial curve, poor fit] | Potency [2] 132 nM [cytotoxic, full curve, poor fit] | Potency [4] 11800 nM [cytotoxic, partial curve, poor fit] | Potency [6] 4.7 nM [cytotoxic, full curve, poor fit] | Potency [7] 74.3 nM [cytotoxic, full curve, poor fit] | Potency [8] 1.7 nM [cytotoxic, full curve, poor fit] | Potency [9] 3720 nM [cytotoxic, partial curve, poor fit] | Potency [10] 18700 nM [cytotoxic, partial curve, poor fit] | Potency [11] 10500 nM [cytotoxic, full curve, poor fit] | viability [12] 104% [cytotoxic] | Potency [15] 2640 nM [cytotoxic, partial curve, poor fit] | Potency [17] 5.9 nM [cytotoxic, partial curve, poor fit] | Potency [19] 83.3 nM [full curve] | Potency (KB-3-1) 148 nM [inhibitor, full curve] | Potency (Es-2) 501 nM [cytotoxic, full curve, poor fit] | Potency (HeLa) 316 nM [cytotoxic, full curve, poor fit] | Potency (OV90) 631 nM [cytotoxic, full curve, poor fit] | Potency (PA-1) 282 nM [cytotoxic, full curve] | Potency (Tov-21-G) 316 nM [cytotoxic, full curve, poor fit] | Potency (MCC-13) 106 nM [inhibitor, full curve] | Potency (MKL-1) 266 nM [inhibitor, full curve] | Potency (UISO) 59 nM [inhibitor, full curve]
active: Potency [5] 66.2 nM | Potency [14] 1660 nM | Potency (HaCat) 33.2 nM | Potency (NIH3T3) 119 nM | Potency (JEG-3) 631 nM | Potency (Tov112D) 316 nM | Potency (WaGa) 83.3 nM
